The values that follow come from paper PMC8412950.

Assay in all cases: co-IP
For assay [1], the target named is T1, NRC3::4xMyc (Nicotiana benthamiana).
T1 sequence: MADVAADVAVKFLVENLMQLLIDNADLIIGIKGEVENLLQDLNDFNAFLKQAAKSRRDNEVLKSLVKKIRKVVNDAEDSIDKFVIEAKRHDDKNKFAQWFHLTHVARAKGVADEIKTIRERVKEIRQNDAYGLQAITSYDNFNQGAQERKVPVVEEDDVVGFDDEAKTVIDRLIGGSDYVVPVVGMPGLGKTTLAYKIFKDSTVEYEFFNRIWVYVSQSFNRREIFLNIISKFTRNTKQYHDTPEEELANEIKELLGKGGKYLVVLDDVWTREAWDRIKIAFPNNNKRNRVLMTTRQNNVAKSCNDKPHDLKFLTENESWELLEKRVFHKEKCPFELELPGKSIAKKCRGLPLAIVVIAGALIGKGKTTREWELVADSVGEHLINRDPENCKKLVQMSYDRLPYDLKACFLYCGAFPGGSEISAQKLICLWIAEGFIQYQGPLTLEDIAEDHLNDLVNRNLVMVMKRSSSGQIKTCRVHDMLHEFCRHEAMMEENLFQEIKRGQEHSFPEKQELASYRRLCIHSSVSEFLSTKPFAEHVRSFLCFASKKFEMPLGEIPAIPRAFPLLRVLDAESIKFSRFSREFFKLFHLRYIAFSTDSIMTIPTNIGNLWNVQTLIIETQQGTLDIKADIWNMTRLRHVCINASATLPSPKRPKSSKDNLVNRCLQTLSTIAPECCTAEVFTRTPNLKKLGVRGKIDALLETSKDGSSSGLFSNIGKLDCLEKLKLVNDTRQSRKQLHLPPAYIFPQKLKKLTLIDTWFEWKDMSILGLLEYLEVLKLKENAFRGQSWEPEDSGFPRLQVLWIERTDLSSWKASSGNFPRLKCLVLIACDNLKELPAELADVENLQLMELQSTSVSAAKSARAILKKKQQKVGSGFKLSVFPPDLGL

The target in assay [2] is T2, GFP::PexRD54 (Phytophthora infestans) (UniProt D0NBE6).
T2 sequence: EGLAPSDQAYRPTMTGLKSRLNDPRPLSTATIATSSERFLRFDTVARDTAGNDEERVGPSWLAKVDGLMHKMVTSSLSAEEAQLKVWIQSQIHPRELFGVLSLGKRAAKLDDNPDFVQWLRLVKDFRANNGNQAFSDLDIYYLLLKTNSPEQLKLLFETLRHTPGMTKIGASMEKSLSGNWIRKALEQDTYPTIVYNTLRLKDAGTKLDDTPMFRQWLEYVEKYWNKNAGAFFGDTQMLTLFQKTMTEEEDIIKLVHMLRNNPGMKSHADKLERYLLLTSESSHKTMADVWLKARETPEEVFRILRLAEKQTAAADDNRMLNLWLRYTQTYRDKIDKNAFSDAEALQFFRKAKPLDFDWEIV

Assay [3] addresses T3, NRC4^K190R::4xMyc (p-loop mutant) (Nicotiana benthamiana).
T3 sequence: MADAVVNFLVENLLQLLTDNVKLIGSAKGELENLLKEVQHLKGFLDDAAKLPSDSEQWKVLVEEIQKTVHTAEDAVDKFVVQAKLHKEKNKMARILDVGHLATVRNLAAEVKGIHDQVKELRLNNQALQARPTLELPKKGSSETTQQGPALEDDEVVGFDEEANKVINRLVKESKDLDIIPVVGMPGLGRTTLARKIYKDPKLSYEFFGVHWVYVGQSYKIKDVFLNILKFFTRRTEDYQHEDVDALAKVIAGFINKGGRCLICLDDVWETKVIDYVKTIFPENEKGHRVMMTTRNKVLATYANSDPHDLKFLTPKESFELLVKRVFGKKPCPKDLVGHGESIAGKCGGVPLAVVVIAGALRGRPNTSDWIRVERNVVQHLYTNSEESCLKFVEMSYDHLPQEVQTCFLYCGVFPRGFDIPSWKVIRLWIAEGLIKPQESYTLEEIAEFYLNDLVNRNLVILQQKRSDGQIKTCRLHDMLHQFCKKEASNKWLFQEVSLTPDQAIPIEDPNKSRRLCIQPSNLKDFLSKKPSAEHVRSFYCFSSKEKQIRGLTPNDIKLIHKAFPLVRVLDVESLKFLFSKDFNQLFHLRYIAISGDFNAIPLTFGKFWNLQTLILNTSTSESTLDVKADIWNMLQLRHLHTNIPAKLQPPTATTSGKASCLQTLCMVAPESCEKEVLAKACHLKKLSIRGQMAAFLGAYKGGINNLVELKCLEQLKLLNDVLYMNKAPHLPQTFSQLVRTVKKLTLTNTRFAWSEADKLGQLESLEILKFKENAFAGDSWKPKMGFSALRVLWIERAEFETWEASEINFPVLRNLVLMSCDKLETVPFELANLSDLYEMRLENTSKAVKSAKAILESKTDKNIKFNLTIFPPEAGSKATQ

Assay [4] deals with T4, NRC3^K191R::4xMyc (p-loop mutant) (Nicotiana benthamiana).
T4 sequence: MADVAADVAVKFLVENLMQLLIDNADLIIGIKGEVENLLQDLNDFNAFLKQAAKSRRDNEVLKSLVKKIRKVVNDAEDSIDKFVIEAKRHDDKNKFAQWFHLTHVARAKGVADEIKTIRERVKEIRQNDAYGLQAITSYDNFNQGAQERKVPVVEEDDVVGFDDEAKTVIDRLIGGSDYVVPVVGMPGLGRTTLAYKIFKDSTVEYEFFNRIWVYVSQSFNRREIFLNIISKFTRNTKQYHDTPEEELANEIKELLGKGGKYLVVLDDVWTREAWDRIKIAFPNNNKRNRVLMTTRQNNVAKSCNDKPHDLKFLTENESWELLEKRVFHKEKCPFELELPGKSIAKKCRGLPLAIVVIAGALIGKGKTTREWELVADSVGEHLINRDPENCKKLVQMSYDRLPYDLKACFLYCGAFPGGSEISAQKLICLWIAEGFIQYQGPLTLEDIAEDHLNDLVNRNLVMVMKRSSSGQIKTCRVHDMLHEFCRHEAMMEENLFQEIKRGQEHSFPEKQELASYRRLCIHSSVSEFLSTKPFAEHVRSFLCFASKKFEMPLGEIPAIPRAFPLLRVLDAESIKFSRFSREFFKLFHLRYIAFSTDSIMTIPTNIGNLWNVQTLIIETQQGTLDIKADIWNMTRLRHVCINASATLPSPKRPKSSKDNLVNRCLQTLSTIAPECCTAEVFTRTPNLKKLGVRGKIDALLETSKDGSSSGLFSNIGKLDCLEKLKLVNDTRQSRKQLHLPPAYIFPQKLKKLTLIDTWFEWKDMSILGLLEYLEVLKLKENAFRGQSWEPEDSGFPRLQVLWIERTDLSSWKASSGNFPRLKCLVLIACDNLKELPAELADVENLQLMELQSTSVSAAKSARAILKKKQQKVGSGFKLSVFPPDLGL

The target of assay [5] is NbTOL9a::6xHA (Nicotiana benthamiana).

Results are given in words; binding and its absence hold for the method and conditions named. Binding seen in cells or lysates may run through a third protein. For part of these data: Binding can be weak; no strength is given. Sequences can lack the tags named with a protein.

As for NbTOL9a::6xHA (Nicotiana benthamiana), the binding entry in assay [1] and in assay [2] was “no binding” throughout.

Regarding 4xHA::SS15 (Globodera rostochiensis), the binding entry in assay [3], in assay [1] and in assay [4] was “binds” each time.

B1: GFP::PexRD54 (protein, UniProt D0NBE6 20-381)
chain: EGLAPSDQAYRPTMTGLKSRLNDPRPLSTATIATSSERFLRFDTVARDTAGNDEERVGPSWLAKVDGLMHKMVTSSLSAEEAQLKVWIQSQIHPRELFGVLSLGKRAAKLDDNPDFVQWLRLVKDFRANNGNQAFSDLDIYYLLLKTNSPEQLKLLFETLRHTPGMTKIGASMEKSLSGNWIRKALEQDTYPTIVYNTLRLKDAGTKLDDTPMFRQWLEYVEKYWNKNAGAFFGDTQMLTLFQKTMTEEEDIIKLVHMLRNNPGMKSHADKLERYLLLTSESSHKTMADVWLKARETPEEVFRILRLAEKQTAAADDNRMLNLWLRYTQTYRDKIDKNAFSDAEALQFFRKAKPLDFDWEIV
For the molecule B1, in assay [5], the binding result is given as “no binding”.
